Values from PubChem BioAssay AID1259308 (NCATS, 2017).

- Purpose: 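Knock-downs that increase output of a recombinant reporter protein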 (primary screen)
- Cell system: human HEK293 embryonic kidney cells stably expressing firefly luciferase (HEK-CMV-Luc2-Hygro)
- Knock-down reagent: single siRNA against human genes, 0.8 pmol siRNA per well
- Duration: 72 h
- Measurement: 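Reporter luminescence and viable-cell signal on separate replicate plates, given as percent of non-targeting control and median/MAD z-scores, plus per-cell luciferase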
- Reading the numbers: total luciferase, z-score and total luciferase, % of control: higher = more reporter protein produced; luciferase per cell, z-score: higher = more reporter output per viable cell; viable cells, % of control: higher = more viable cells
- Rule for the call: 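An siRNA counts as active if its total luciferase robust z-score exceeds 3; genes with two or more such siRNAs out of three were retested with fresh siRNAs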
- Calls: active = raised luciferase; inactive = no rise
The deposit covers about 59,000 reagents; shown is a random part of them. About 1,510 of all reagents (2.6%) were called active. 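Calls use total luciferase alone and ignore viability, so some active siRNAs may act by altering cell number.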 Unmarked entries are inactive. The numbers tell different reagents against one gene apart.

| total luciferase, z-score | total luciferase, % of control | luciferase per cell, z-score | viable cells, % of control | gene | siRNA no. |
| --- | --- | --- | --- | --- | --- |
| 3.57 (active) | 153 | 1.77 | 107 | JAK2 | 1 |
| -1.36 | 54.9 | -1.19 | 83.8 | JAK2 | 2 |
| -0.447 | 73 | -0.599 | 95.5 | JAK2 | 3 |
| 2.02 | 122 | 2.41 | 72.4 | TNFSF8 | 1 |
| 0.993 | 102 | 0.445 | 101 | TNFSF8 | 2 |
| -0.675 | 68.5 | 0.455 | 67.9 | TNFSF8 | 3 |
| 0.0637 | 83.2 | 0.248 | 87 | ICAM5 | 1 |
| 2.15 | 125 | 1.81 | 86.6 | ICAM5 | 2 |
| 2.41 | 130 | 2.29 | 79.3 | ICAM5 | 3 |
| -0.131 | 79.3 | 1.59 | 58.3 | ARSH | 1 |
| 2.81 | 138 | 1.72 | 97.9 | ARSH | 2 |
| -1.91 | 44 | -1.39 | 70.9 | ARSH | 3 |
| -0.201 | 77.9 | 0.22 | 82.2 | BORA | 1 |
| -0.0477 | 80.9 | -0.265 | 97 | BORA | 2 |
| -0.947 | 63 | -0.64 | 83.4 | BORA | 3 |
| -0.835 | 65.3 | -1.33 | 103 | CBX3 | 1 |
| 0.488 | 91.6 | 0.272 | 95.3 | CBX3 | 2 |
| 2.42 | 130 | 1.43 | 99.6 | CBX3 | 3 |
| 0.387 | 89.6 | 0.305 | 92.4 | CNOT6L | 1 |
| -0.598 | 70 | -0.529 | 89.9 | CNOT6L | 2 |
| -1.07 | 60.5 | -0.747 | 82.4 | CNOT6L | 3 |
| -0.918 | 63.6 | -1.16 | 96.5 | GSAP | 1 |
| 0.859 | 99 | 0.316 | 102 | GSAP | 2 |
| 2.15 | 125 | 1.43 | 95.5 | GSAP | 3 |
| 0.284 | 87.5 | -0.0718 | 99.7 | FBXL13 | 1 |
| -0.834 | 65.3 | -1.16 | 99 | FBXL13 | 2 |
| 1.98 | 121 | 1.72 | 86.1 | FBXL13 | 3 |
| 0.82 | 98.2 | 0.763 | 89.7 | ACRP1 | 1 |
| 0.941 | 101 | 0.987 | 86.7 | ACRP1 | 2 |
| 0.744 | 96.7 | 0.876 | 85.8 | ACRP1 | 3 |
| -0.964 | 62.7 | -0.508 | 80.1 | APOBEC4 | 1 |
| 1.37 | 109 | 1.48 | 82.6 | APOBEC4 | 2 |
| 0.516 | 92.2 | 0.883 | 81.6 | APOBEC4 | 3 |
| 0.012 | 82.1 | -0.806 | 113 | TMEM200A | 1 |
| -0.0356 | 81.2 | -0.0295 | 91.4 | TMEM200A | 2 |
| -0.212 | 77.7 | -0.615 | 102 | TMEM200A | 3 |
| 0.543 | 92.7 | 0.871 | 82.3 | NRIP2 | 1 |
| 0.303 | 87.9 | 0.371 | 89.1 | NRIP2 | 2 |
| 1.43 | 110 | 1.6 | 80.8 | NRIP2 | 3 |
| 0.0319 | 82.5 | 1.07 | 69.6 | TTI2 | 1 |
| 0.112 | 84.1 | 0.0374 | 93.1 | TTI2 | 2 |
| -0.425 | 73.4 | -0.344 | 89.8 | TTI2 | 3 |
| -1.6 | 50 | -0.84 | 69.7 | LAMB1 | 1 |
| 1.81 | 118 | 0.678 | 110 | LAMB1 | 2 |
| 0.29 | 87.7 | -0.133 | 101 | LAMB1 | 3 |
| -0.282 | 76.3 | -0.506 | 97.4 | FEZF2 | 1 |
| 1.17 | 105 | 1.19 | 85.8 | FEZF2 | 2 |
| -0.688 | 68.2 | -0.693 | 91.5 | FEZF2 | 3 |
| 1.16 | 105 | 1.01 | 89.9 | FLNA | 1 |
| -1.14 | 59.2 | -0.13 | 68.5 | FLNA | 2 |
| 0.759 | 97 | 0.65 | 91.3 | FLNA | 3 |
| -0.0403 | 81.1 | 0.574 | 77.9 | PCNP | 1 |
| 0.801 | 97.8 | 0.0524 | 108 | PCNP | 2 |
| -0.0429 | 81 | -0.328 | 98.7 | PCNP | 3 |
| 0.159 | 85.1 | 0.52 | 82.9 | ANKRD39 | 1 |
| 0.578 | 93.4 | 0.378 | 94.4 | ANKRD39 | 2 |
| 2.16 | 125 | 1.82 | 86.5 | ANKRD39 | 3 |
